Data published in article doi:10.1101/541656.
Results are given in words; binding and its absence hold for the method and conditions named. Binding seen in cells or lysates may run through a third protein. These calls come from enrichment with a bait or labelling near it, and not all partners need be listed. One block for each molecule: values may come before it.

Amino acid sequences for entries named in this document (tags omitted). A change or cut given only in a name is not applied to a line headed by its entry.
UniProt P43487: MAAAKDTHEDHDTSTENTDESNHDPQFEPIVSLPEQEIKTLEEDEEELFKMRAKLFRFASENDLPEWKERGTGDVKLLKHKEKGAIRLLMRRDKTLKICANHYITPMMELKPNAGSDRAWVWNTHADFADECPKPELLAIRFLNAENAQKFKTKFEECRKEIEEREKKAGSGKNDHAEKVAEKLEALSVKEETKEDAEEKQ
UniProt P18754: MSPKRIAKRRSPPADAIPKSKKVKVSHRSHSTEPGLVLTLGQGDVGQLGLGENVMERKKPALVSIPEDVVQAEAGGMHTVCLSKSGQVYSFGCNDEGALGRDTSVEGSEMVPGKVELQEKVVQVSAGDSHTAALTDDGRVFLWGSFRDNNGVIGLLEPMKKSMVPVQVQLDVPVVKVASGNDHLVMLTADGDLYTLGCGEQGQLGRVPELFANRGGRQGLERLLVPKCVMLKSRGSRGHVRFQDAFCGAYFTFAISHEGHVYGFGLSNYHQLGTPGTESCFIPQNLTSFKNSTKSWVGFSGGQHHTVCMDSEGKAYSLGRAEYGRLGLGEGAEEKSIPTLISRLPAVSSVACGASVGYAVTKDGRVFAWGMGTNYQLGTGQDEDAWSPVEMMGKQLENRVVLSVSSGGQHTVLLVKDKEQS

Legend:
[1] = target: RANBP1 S60E mutant, 3xFLAG tagged (human) (UniProt P43487); assay: affinity purification with mass spectrometry
[2] = target: RAN Binding Protein 1 (RANBP1) WT, 3xFLAG tagged (human) (UniProt P43487); assay: affinity purification with mass spectrometry

binding [1]: binds
binding [2]: binds
Molecule: RCC1 (from UniProt P18754 1-421)

binding [1]: binds
binding [2]: binds
B1: NEMP1 (protein, UniProt O14524 44-444)
chain: ETDVNVVMLQESQVCEKRASQQFCYTNVLIPKWHDIWTRIQIRVNSSRLVRVTQVENEEKLKELEQFSIWNFFSSFLKEKLNDTYVNVGLYSTKTCLKVEIIEKDTKYSVIVIRRFDPKLFLVFLLGLMLFFCGDLLSRSQIFYYSTGMTVGIVASLLIIIFILSKFMPKKSPIYVILVGGWSFSLYLIQLVFKNLQEIWRCYWQYLLSYVLTVGFMSFAVCYKYGPLENERSINLLTWTLQLMGLCFMYSGIQIPHIALAIIIIALCTKNLEHPIQWLYITCRKVCKGAEKPVPPRLLTEEEYRIQGEVETRKALEELREFCNSPDCSAWKTVSRIQSPKRFADFVEGSSHLTPNEVSVHEQEYGLGSIIAQDEIYEEASSEEEDSYSRCPAITQNNFLT
